Test results from PubChem BioAssay AID2685 (National Center for Advancing Translational Sciences (NCATS), 2010).
This is one part of the list. Further columns of the screen follow, without active or inactive calls. Compounds called inactive in the main read-out are mostly missing here. The note in brackets gives the kind of curve behind each potency; many fits are weak.

Assay: qHTS Assay for Lipid Storage Modulators in Drosophila S3 Cells;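 as to cell number change: cells counted by Cell Tracker Red CMTPX staining in the red channel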
Settings: BODIPY lipid droplet fluorescence, 18-24 h; for cell number change: measured here: cell count max response, cells fed with added oleic acid
Procedure, shortened: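 Drosophila S3 cells got compounds at several concentrations plus oleic acid (400 uM solution). Laser-scanning cytometry with 488 nm excitation read lipid droplets at 500-530 nm and cells at 575-640 nm. Percent activity was relative to 20 uM Triacsin C.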

[1] = measured here: lipid fluorescence (Fed channel) AC50, cells fed with added oleic acid
[2] = measured here: cell number channel AC50, cells fed with added oleic acid

| SMILES | cell number change | AC50 [1] | AC50 [2] |
| --- | --- | --- | --- |
| O=[N+]([O-])/C(C=Nc1ccccc1O)=C\Nc1ccccc1O | -14% | – | – |
| O=C(COC(=O)c1ccccc1-n1cnnn1)c1ccc(F)c(F)c1 | 17.1% | 6.51 µM [falling, single point] | – |
| Cc1ccc(NC(=O)C(=O)NCC2CCCN2S(=O)(=O)c2cccs2)cc1 (configuration not stated) | 95.6% | – | 8.2 µM [rising, partial curve] |
| O=S(=O)(c1ccccc1)c1nc(-c2ccco2)oc1NCCCn1ccnc1 | – | 0.82 µM [rising, full curve] | 0.651 µM [rising, full curve] |
| CC(=O)c1cccc(NS(=O)(=O)c2ccc(-c3cc(C)no3)s2)c1 | -16.1% | – | – |
| O=C(Nc1cc(Cl)cc(Cl)c1)C(NCCCO)c1ccccc1 (configuration not stated) | 52.5% | – | 29.1 µM [rising, partial curve, poor fit] |
| Cc1cc(NCCN(C)C)n2nc(-c3cccs3)cc2n1 | 5.67% | 6.51 µM [rising, single point] | – |
| Nc1nonc1-n1nnc(C(=O)N/N=C/c2cccnc2)c1-c1ccccc1 | 3.63% | – | – |
| CN1CCN(S(=O)(=O)c2cccc(C(=O)NCc3ccc(Cl)cc3)c2)CC1 | – | 2.91 µM [rising, partial curve, poor fit] | – |
| COCCCN1C(=O)c2ccc(C(=O)O)cc2C1=O | -60.6% | 6.51 µM [falling, single point] | 4.11 µM [falling, full curve] |
| CCCCn1c(N)c(N(CC(C)C)C(=O)CN(C)Cc2cccc(OC)c2)c(=O)[nH]c1=O | -24.2% | – | 0.731 µM [falling, full curve, poor fit] |
| NC(=O)C1CCN(C2=C(Cl)C(=O)c3ccccc3C2=O)CC1 | -77.5% | 18.4 µM [falling, single point] | 20.6 µM [falling, single point] |
| COc1ccc(/C=N/N(CCC(=O)NC(C)(C)C)C2=NS(=O)(=O)c3ccccc32)cc1 | -14.4% | 29.1 µM [falling, single point] | – |
| O=S(=O)(c1cnc[nH]1)N1CCc2ccccc21 | 3.25% | – | 1.46 µM [falling, partial curve, poor fit] |
| CC(Sc1cccc[n+]1[O-])c1ccccc1 (configuration not stated) | 0.529% | 29.1 µM [rising, single point] | – |
| CCCC1NC(=O)NC(C)=C1C(=O)OCC (configuration not stated) | -13.3% | 2.91 µM [falling, partial curve, poor fit] | 2.59 µM [falling, partial curve] |
| Cc1ccc(C(C(=O)NCc2ccccc2)N(C(=O)c2csnn2)c2cccc3ccccc23)o1 (configuration not stated) | -39.7% | 18.4 µM [falling, single point] | 18.4 µM [falling, single point] |
| C=CCOc1ccc(/C=C/C(=O)OCC(=O)N(C)C2CCS(=O)(=O)C2)cc1 (configuration not stated) | – | 0.206 µM [rising, full curve] | – |
| CCNC(=O)NC(=O)C(C)OC(=O)C1CCN(S(=O)(=O)c2ccccc2F)CC1 (configuration not stated) | 26.3% | 0.58 µM [falling, full curve, poor fit] | – |

| SMILES | cell number change | AC50 [1] | AC50 [2] |
| --- | --- | --- | --- |
| Cc1ccc(OCCCN2C(=O)C(=O)c3cc(C)ccc32)cc1 | 4.08% | 0.0517 µM [falling, full curve, poor fit] | – |
| O=C(C(O)c1ccccc1)N1N=C(c2ccccc2)CC1(O)C(F)(F)F (configuration not stated) | 9.12% | – | – |
| COc1ccc(NC(=O)C(=O)NCC(c2ccco2)N2CCc3ccccc3C2)cc1 (configuration not stated) | 40.3% | 8.2 µM [rising, partial curve] | 5.17 µM [rising, partial curve] |
| Brc1ccc(C2C3=C(Nc4ncnn42)c2ccccc2OC3c2ccncc2)cc1 (configuration not stated) | -4.16% | 0.651 µM [rising, partial curve, poor fit] | 1.84 µM [rising, partial curve, poor fit] |
| CN(CC(=O)Nc1cccc(F)c1)C(=O)/C=C/c1ccc(Br)s1 | -5.72% | – | – |
| COc1ccccc1N1CCN(C(=O)CCc2nnc3ccc(N4CCCC4)nn23)CC1 | -43.3% | 18.4 µM [falling, single point] | 32.6 µM [falling, single point] |
| COc1ccc(-c2cc(-c3cc(OC)ccc3O)[nH]n2)cc1 | -56.3% | 18.4 µM [falling, single point] | 29.1 µM [falling, single point] |
| c1cncc(C2Nc3ccccc3-c3nc4ccccc4n32)c1 (configuration not stated) | 45.1% | – | 0.0291 µM [rising, full curve, poor fit] |
| COC(=O)NNC(=S)Nc1cc(OC)ccc1OC | -28.2% | – | 0.82 µM [falling, full curve, poor fit] |
| O=C1C2CCCCN2C(=O)N1CCCCN1CCN(c2cccc(Br)c2)CC1 (configuration not stated) | -2.49% | 6.51 µM [falling, single point] | – |
| COc1cccc(CNC(=O)CCC2CCCN(C(=O)c3ccc(F)c(Cl)c3)C2)c1 (configuration not stated) | -31.7% | 29.1 µM [falling, single point] | 29.1 µM [falling, single point] |
| CCN(CC(=O)Nc1c(F)cccc1F)C(=O)c1cccc(-n2cccc2)c1 | 4.05% | – | 0.411 µM [falling, partial curve, poor fit] |
| N#Cc1c(C(F)(F)F)cc(-c2ccco2)nc1SCc1ccccn1 | -5.18% | 6.51 µM [falling, partial curve] | 0.92 µM [rising, full curve] |
| Cc1ccc2c(c1)N(CC(=O)NCCCN1CCN(C)CC1)C(=O)CO2 | 17.9% | – | – |
| CCOC(=O)C1CCCN(C(=O)c2ccc(S(=O)(=O)N3CCOCC3)cc2)C1 (configuration not stated) | -4.53% | 0.0058 µM [falling, full curve, poor fit] | – |
| Cc1cccc(-c2ncc(CN3CCC(CO)(CCCc4ccccc4)CC3)cn2)c1 | -47.8% | 25.9 µM [falling, partial curve, poor fit] | 25.9 µM [falling, single point] |
| COc1ccc(S(=O)(=O)N2CC(O)CC2C(=O)OCC(=O)Nc2ccc(Cl)cn2)cc1 (configuration not stated) | -26.1% | 0.326 µM [falling, full curve, poor fit] | 0.116 µM [falling, full curve, poor fit] |
| COc1cc(C(=O)NCC(=O)OCc2ccccc2Cl)cc(OC)c1OC | -36.4% | – | – |
| Cn1c(=O)c(=O)n(C)c2cc(S(=O)(=O)N3CCc4ccccc43)ccc21 | -1.19% | 1.84 µM [rising, partial curve] | – |

| SMILES | cell number change | AC50 [1] | AC50 [2] |
| --- | --- | --- | --- |
| Cc1ccc(CNS(=O)(=O)c2ccc3c(c2)CCN3C(=O)CCCC(=O)O)cc1 | 29.6% | 29.1 µM [rising, single point] | – |
| CC(C)c1ccc(/C=C/C2=NNC(=O)CC2)cc1 | -1.49% | 2.91 µM [rising, single point] | – |
| CC1=NN(c2ccccc2)C(=O)C1N=Nc1cccc(O)c1 (configuration not stated) | -54.9% | 6.51 µM [falling, single point] | 16.4 µM [falling, partial curve] |
| O=C(Nc1ccccc1Cl)NC1CCCCCCC1 | 3.47% | 0.092 µM [falling, full curve, poor fit] | – |
| COCc1cc(C)n(CC(=O)NCc2ccccc2)c(=O)c1C#N | 112% | – | – |
| Cc1nnc(NC(=O)c2cc3ccccc3o2)s1 | 14.1% | 5.17 µM [rising, single point] | – |
| CCOC(=O)c1cc2occc2n1CC(=O)N1CCN(C(=O)c2ccco2)CC1 | 47.9% | 10.3 µM [rising, partial curve] | 7.31 µM [rising, partial curve] |
| Cc1cc(C(=O)NC(C)c2ccncc2)cs1 (configuration not stated) | 40.2% | 10.3 µM [rising, partial curve] | 0.517 µM [rising, partial curve] |
| Cc1cc(C)cc(NS(=O)(=O)c2ccc3[nH]c(=O)ccc3c2)c1 | 19.1% | – | – |
| CCn1c(SCc2nnc(-c3ccccc3)o2)nc2c1c(=O)n(C)c(=O)n2C | 14.7% | 4.61 µM [rising, partial curve] | – |
| Cc1cccc(N(CC(=O)NC2CC2)S(=O)(=O)c2ccc(Cl)cc2)c1 | 7.18% | 32.6 µM [rising, single point] | – |
| O=c1ccc2c(-c3ccccc3S(=O)(=O)O)c3ccc(O)c(O)c3oc-2c1O | -82.4% | – | 18.4 µM [falling, partial curve] |
| CC(C)CC1NC2(C(=O)N(C)c3ccccc32)C2C(=O)N(C(C)C)C(=O)C12 (configuration not stated) | – | 6.51 µM [falling, single point] | – |
| Cc1cccc(Oc2ccc(N)cc2)c1 | 23.8% | – | 0.58 µM [rising, full curve, poor fit] |
| N#C/C(=C\c1sc(N2CCOCC2)nc1-c1ccccc1)C(=O)Nc1cccc2ccccc12 | 10.2% | 25.9 µM [rising, partial curve] | – |
| COc1ccccc1CNC(=O)c1cnccn1 | -26.5% | 20.6 µM [falling, partial curve] | – |
| CCCn1nc(C(=O)OCC(=O)Nc2cccc(OC)c2)c2ccccc2c1=O | 11.7% | 12.6 µM [rising, partial curve, poor fit] | – |
| COc1ccc(OCC(O)CN(CCO)CC(O)Cn2ccc3ccccc32)cc1 (configuration not stated) | -2.9% | 0.103 µM [falling, full curve, poor fit] | – |
| COc1cc(C(=O)OCc2cccc(OC)c2OC)ccc1OCC(=O)N1CCOCC1 | -1.04% | 4.11 µM [rising, single point] | – |

Copied from above (three entries):

| SMILES | cell number change | AC50 [1] | AC50 [2] |
| --- | --- | --- | --- |
| Cc1cc(C(=O)NC(C)c2ccncc2)cs1 (configuration not stated) | 40.2% | 10.3 µM [rising, partial curve] | 0.517 µM [rising, partial curve] |
| Cc1cc(C)cc(NS(=O)(=O)c2ccc3[nH]c(=O)ccc3c2)c1 | 19.1% | – | – |
| CCn1c(SCc2nnc(-c3ccccc3)o2)nc2c1c(=O)n(C)c(=O)n2C | 14.7% | 4.61 µM [rising, partial curve] | – |
